Results from the supplement of paper PMC6411743.
± gives the standard deviation of the averaged measurements. The list shows a part of the results.

Molecular target: T1, ZW10 (UniProt O43264)
T1 sequence (whole entry): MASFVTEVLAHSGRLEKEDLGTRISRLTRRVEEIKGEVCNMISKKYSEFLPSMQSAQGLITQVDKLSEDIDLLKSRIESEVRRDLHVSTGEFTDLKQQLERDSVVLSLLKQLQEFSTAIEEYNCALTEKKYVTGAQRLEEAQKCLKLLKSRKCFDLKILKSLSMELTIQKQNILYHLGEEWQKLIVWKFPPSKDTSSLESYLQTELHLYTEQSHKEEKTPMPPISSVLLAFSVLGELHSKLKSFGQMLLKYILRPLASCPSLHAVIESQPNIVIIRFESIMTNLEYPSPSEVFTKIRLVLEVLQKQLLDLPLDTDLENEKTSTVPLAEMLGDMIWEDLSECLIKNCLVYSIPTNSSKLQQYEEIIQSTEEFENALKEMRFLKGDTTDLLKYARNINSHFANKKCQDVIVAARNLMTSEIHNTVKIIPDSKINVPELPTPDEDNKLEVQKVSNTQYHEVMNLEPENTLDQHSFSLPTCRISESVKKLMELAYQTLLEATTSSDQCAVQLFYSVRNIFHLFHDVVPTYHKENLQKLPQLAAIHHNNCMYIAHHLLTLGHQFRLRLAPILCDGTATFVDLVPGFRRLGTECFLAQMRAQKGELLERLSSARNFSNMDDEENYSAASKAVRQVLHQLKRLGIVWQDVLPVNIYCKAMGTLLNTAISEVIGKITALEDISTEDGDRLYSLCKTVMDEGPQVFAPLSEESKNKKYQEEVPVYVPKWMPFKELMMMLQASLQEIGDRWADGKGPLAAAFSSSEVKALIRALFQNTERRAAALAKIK
Experiment: NP40-soluble protein abundance relative to vehicle (solubility fold change) (ratio); higher = more soluble protein in presence of GTP
Method: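 Solubility proteome profiling in Jurkat crude lysate. Lysate was treated with Mg-GTP (0.1-10 mM) for 10 min at room temperature and 3 min at 37 °C, then solubilised with 0.8% NP40 and benzonase, followed by ultracentrifugation. Proteins were quantified by TMT10 LC-MS/MS; the value is the NP40-soluble abundance relative to the NP40-processed vehicle, from 3 independent experiments.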

Nc1nc2c(ncn2[C@@H]2O[C@H](COP(=O)(O)OP(=O)(O)OP(=O)(O)O)[C@@H](O)[C@H]2O)c(=O)[nH]1 [guanosine triphosphate]
NP40-soluble protein abundance (concentration: 0.1mM): 1.01 ± 0.025
NP40-soluble protein abundance (concentration: 0.5mM): 1.04 ± 0.05
NP40-soluble protein abundance (concentration: 1mM): 1.02 ± 0.081
NP40-soluble protein abundance (concentration: 2mM): 1.03 ± 0.054
NP40-soluble protein abundance (concentration: 4mM): 1.02 ± 0.053
NP40-soluble protein abundance (concentration: 6mM): 1.01 ± 0.051
NP40-soluble protein abundance (concentration: 8mM): 1.03 ± 0.065
NP40-soluble protein abundance (concentration: 10mM): 0.984 ± 0.05
